Test results published in publication PMC12454907.
Results are given in words; binding and its absence hold for the method and conditions named. In cells and extracts the contact can be indirect. Some results given as binding are weak or reduced against the parent protein; the word gives no strength. Tags and fused reporters may be left off the sequences shown.

Experiments:
[1] = biological target: T1, GST-OsGF14c (rice (Oryza sativa)) (UniProt Q6ZKC0); test: pull-down; GST fusion or GST on glutathione agarose resin, induced His-OsSAP5 added, 2 h at 4°C, 25 mM Tris-HCl pH 8.0, 150 mM NaCl, 1/2,000 NP-40, 1/20 glycerol; blots with anti-His and anti-GST
T1 sequence: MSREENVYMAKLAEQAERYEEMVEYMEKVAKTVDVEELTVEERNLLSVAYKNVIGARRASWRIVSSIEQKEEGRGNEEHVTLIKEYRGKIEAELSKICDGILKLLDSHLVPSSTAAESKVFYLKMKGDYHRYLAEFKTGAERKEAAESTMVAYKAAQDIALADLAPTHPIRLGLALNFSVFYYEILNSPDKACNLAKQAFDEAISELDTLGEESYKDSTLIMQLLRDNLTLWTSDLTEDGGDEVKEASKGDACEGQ

[2] = biological target: T2, OsGF14c-GFP (rice (Oryza sativa)) (UniProt Q6ZKC0); test: co-IP; rice protoplasts co-transfected with p35s::OsGF14c-GFP and p35s::OsSAP5-HA, anti-GFP affinity beads 2 h at 4°C, blots with anti-HA and anti-GFP
T2 sequence: T1 sequence

[3] = biological target: T3, OsGF14c-nLuc (rice (Oryza sativa)) (UniProt Q6ZKC0); test: split reporter; luciferase complementation imaging (LCI) in N. benthamiana leaves, 48 h after agroinfiltration, 1 mM luciferin, CCD imaging
T3 sequence: T1 sequence

[4] = biological target: T4, OsGF14c in pSPYNE-35s (BiFC fusion) (rice (Oryza sativa)) (UniProt Q6ZKC0); test: split reporter; BiFC (split YFP, pSPYCE-35s and pSPYNE-35s) in N. benthamiana leaf epidermal cells, confocal microscopy
T4 sequence: T1 sequence

B1: His-OsSAP5 (protein, UniProt Q6H754 1-154)
chain: MAEEQRWQEGCHRLCANNCGFFGSPATLDLCSKCYRDRQGRESTAPVVVAAAASACPATHPSSPSSSSCPAFLPSSTAAEAGVVVAAVAKASRCASCRKRVGLTGFACRCGGTFCGAHRYPERHACGFDFKAAGRDAIARANPLIKGDKLKDKI
B1 was tested, and the binding [1] was “binds”.

B2: OsSAP5-HA (protein, UniProt Q6H754 1-154)
chain: B1 chain
With B2 the binding [2] was “binds”.

B3: cLuc-OsSAP5 (protein, UniProt Q6H754 1-154)
chain: B1 chain
For B3, the binding [3] was “binds”.

B4: OsSAP5 in pSPYCE-35s (BiFC fusion) (protein, UniProt Q6H754 1-154)
chain: B1 chain
With B4 the binding [4] was “binds”.
